Experimental data taken from article PMC12061330.
Results are given in words; binding and its absence hold for the method and conditions named. In cells and extracts the contact can be indirect. Some binding calls cover weakened binding; strength is not graded here.

Sequences of proteins named here, by UniProt entry; tags and fusion partners are left off.
UniProt P01106: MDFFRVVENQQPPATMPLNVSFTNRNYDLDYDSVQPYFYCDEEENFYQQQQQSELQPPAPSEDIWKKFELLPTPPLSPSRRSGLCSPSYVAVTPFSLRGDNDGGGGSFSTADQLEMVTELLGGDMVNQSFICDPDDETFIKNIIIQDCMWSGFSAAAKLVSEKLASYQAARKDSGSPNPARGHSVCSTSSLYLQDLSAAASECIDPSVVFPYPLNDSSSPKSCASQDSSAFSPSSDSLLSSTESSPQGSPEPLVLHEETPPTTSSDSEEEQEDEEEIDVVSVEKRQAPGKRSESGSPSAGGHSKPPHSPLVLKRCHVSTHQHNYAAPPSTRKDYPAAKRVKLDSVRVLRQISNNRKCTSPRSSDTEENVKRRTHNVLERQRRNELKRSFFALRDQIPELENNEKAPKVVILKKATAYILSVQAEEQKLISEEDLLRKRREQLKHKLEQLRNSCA
UniProt Q14690: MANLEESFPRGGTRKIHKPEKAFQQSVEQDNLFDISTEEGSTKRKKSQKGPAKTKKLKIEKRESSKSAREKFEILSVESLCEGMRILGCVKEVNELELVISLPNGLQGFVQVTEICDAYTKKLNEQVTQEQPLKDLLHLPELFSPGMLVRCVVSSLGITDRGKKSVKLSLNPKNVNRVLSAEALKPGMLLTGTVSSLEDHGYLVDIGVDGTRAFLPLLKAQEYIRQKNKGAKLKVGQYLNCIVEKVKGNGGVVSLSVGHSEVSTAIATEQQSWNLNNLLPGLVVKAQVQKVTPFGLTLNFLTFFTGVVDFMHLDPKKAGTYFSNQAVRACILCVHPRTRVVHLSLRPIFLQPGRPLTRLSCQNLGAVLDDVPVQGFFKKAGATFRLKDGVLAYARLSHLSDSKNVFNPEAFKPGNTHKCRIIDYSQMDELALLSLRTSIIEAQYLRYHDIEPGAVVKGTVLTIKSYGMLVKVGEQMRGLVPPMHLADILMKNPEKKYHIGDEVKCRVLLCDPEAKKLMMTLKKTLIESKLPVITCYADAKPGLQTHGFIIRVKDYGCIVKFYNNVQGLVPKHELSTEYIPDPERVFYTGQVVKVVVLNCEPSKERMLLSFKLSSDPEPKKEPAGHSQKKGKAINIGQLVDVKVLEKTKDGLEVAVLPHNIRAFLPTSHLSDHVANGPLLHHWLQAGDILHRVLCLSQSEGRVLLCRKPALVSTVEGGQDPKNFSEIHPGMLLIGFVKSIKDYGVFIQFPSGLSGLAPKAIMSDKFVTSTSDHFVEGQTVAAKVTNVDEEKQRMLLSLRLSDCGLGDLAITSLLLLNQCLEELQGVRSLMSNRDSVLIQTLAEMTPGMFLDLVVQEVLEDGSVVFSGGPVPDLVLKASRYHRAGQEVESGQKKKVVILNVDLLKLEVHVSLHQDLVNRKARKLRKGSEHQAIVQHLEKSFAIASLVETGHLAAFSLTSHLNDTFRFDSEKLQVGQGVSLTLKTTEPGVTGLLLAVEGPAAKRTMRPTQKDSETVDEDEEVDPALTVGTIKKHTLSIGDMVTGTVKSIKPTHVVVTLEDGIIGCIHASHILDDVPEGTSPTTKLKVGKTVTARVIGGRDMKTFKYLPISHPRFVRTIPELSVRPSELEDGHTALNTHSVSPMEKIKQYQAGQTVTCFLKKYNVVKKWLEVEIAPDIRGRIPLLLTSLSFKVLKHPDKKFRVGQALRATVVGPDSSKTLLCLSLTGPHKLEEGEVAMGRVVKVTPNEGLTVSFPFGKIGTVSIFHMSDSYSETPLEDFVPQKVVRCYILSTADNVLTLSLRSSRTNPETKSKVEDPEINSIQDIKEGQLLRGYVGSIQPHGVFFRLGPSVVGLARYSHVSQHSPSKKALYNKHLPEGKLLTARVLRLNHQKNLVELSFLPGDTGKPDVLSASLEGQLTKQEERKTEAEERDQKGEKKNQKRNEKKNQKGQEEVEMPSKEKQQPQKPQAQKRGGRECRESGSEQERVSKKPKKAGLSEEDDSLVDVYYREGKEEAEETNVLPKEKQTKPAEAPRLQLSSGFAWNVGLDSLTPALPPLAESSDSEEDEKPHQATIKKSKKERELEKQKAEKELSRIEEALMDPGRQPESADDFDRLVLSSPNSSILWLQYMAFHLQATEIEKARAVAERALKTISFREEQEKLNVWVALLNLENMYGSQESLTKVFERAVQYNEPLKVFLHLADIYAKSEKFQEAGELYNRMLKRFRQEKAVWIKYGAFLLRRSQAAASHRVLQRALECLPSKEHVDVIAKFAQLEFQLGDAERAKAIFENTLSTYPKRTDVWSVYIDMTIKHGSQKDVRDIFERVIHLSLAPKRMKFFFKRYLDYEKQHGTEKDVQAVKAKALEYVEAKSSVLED

Target: C‐MYC (endogenous) (human (endogenous in MDA‐MB‐231 and HT‐29)) (UniProt P01106)
Experiment: co-IP; anti‐C‐MYC precipitation of endogenous proteins from MDA‐MB‐231 and HT‐29 cell lysate; normal rabbit IgG as negative control; input 5% of the lysate

## PDCD11 (endogenous) (from UniProt Q14690 1-1871)
  binding: binds
